The full ranking holds about 33,000 sequences; the median of “E-score (-0.5 to 0.5)” is about -0.0059, and the highest 2% start at about 0.26. Some of the results follow.
target: T1, Cin5 (UniProt P40917); assay: PBM E-score (8-mer binding enrichment) (E-score (-0.5 to 0.5)); higher = stronger / more preferred TF binding; details: protein concentration: 100 nM; construct: GST-full length
T1 sequence: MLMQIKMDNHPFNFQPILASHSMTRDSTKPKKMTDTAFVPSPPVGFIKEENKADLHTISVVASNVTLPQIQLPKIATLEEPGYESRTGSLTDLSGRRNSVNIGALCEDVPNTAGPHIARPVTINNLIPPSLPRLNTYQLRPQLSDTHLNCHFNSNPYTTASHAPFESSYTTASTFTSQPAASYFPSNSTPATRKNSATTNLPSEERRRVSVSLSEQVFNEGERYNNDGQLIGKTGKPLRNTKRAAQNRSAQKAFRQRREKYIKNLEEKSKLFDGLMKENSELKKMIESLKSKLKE
Description: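 Universal 'all 10-mer' protein binding microarrays (Agilent AMADID 015681) probed with GST-tagged S. cerevisiae TFs (full-length or DBD) made by in vitro transcription/translation (PURExpress), about 100-200 nM. Bound TF was detected with fluorescent anti-GST. Each ungapped 8-mer (which stands for itself and its reverse complement) is scored by the PBM enrichment score (E-score), a modified Wilcoxon-Mann-Whitney statistic from -0.5 to +0.5, computed with the Universal PBM Analysis Suite. Scale: above 0.35 generally sequence-specific binding.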

Sequence	PBM E-score
AGCTACTA	0.0811
GACTTATC	0.0249
CACTTGAC	-0.0926
TAGAATGA	0.181
ACCAGTCC	-0.243
ACTTTTTG	0.0703
GTACTACA	0.0748
GAGGAATA	0.128
ATCCCGAG	0.106
ATTAGGCC	-0.0142
CATGTTAA	0.178
GCCGCGAC	-0.086
AATCATCG	-0.0169
GGGCGACA	-0.219
CGAAATTA	0.133
GAACATGA	0.0568
CCGCTTAC	0.334
ACCTGTAG	-0.0944
CATCCCGG	-0.0216
ATGTGCCG	-0.26
GTGGCAGA	-0.27
ATAAGAGG	0.0334
ACAAGAAG	0.196
ATCGATTG	0.192
AACGCCAG	0.00039

Sequence	PBM E-score
GCAAGGGC	-0.235
CTTATGCC	0.0394
CACGCGCG	-0.119
CCGGCACC	0.0257
AACCCTGA	0.131
TACAAACA	0.199
TTGCCAAA	-0.0109
CCCTCGCC	-0.0603
CATGCCTA	-0.126
GAGCCACA	0.0129
ATAGATTG	0.224
CGCCAAAG	-0.0824
AAACTCAC	0.0125
ACGACTGC	-0.141
CTGTGCTA	-0.00732
CTATCGCA	0.0826
GCCTTGTA	-0.115
ATGTGACA	0.0297
CGTAGGTA	-0.0204
CCCAATCA	0.144
CAAGTGCG	0.0366
AGGCCGGG	-0.293
AGATCTCC	-0.119
CGCAGAAG	0.082
ATACCGGA	0.0611

Sequence	PBM E-score
GGGTCGAA	-0.178
AGAACTAG	-0.117
TCGCGCGA	0.143
TAACGTTA	0.117
ATTGATCC	0.00708
AGATCCAA	-0.0116
CGAATACC	0.00898
ACAGACAG	0.195
ACCAGTGG	-0.0886
ACTGTCGA	-0.0188
GACGTCGA	0.0737
GGCCTAAA	-0.157
ATCCTTTC	-0.0501
CCGATCTA	-0.00311
ACAGTGGT	-0.0575
GGCGGGGA	0.171
CGAAACGC	-0.139
AGTAGCGG	0.125
GAATGCCA	-0.0651
ACACGCGT	0.0639
GCGTCAAA	0.00909
CGGTTACC	-0.127
AGTTGCTC	-0.0649
GCAACGCC	-0.122
ATATTAAG	0.122

Sequence	PBM E-score
AACGGCCA	-0.0837
CACTGGTC	-0.239
AAAACTTT	-0.041
AAATGACC	-0.00918
AGCTGGGA	-0.182
CACAGCCA	-0.0907
AGGCCGTC	-0.171
CGCCCAGC	0.0549
GAGTACCC	-0.0959
GCGTAGGA	-0.0406
CTGAACAC	0.167
AGCCATCC	-0.198
AGGTATAG	-0.0316
CACGACCA	-0.0834
CTACCTGC	-0.0488
ATCCGAGA	0.139
GTTAAAAA	-0.0143
ATCAATTC	0.044
CCCGCTTC	-0.17
CCAGCGAG	-0.0473
ACCAGCCT	-0.138
GCTTGTCC	-0.0652
CTTGGAAA	0.0193
AGGAGGAT	-0.182
GGGGGTGA	-0.387

Sequence	PBM E-score
AACCCACT	0.223
CACCGGGC	-0.321
AAGCCTAC	-0.168
ATTCCGTC	0.226
GTGTCCGA	-0.0777
AAGACCTT	-0.0603
TGTCCAAA	-0.0285
GTTGCGCA	-0.0379
CTTAGTGC	0.0286
GGGGACAC	-0.319
CCTTGGAC	-0.239
AGCAAGCG	-0.00554
GGCAGCCC	-0.179
CCATGTCA	-0.0999
GAAGGCAC	-0.0161
CCTGAACC	-0.0369
GTATACAC	-0.0283
AGCCGGAG	0.0621
AGGATCGA	-0.0937
ACAGGCAT	-0.0864
ACAAGCCC	-0.175
CCGGACCA	-0.219
AAGTATAT	0.111
ACTTGCGA	0.0628
ATGGCGTC	-0.12

Some of the entries above, set out differently:
TGTCCAAA
  PBM E-score = -0.0285
CTTAGTGC
  PBM E-score = 0.0286
AGCAAGCG
  PBM E-score = -0.00554
ATGGCGTC
  PBM E-score = -0.12

Continued:

Sequence	PBM E-score
CCATGTCG	0.0349
AGCTTCCG	-0.0682
CGAATTAA	0.0709
AAACGTGC	-0.119
CCCATAAC	0.0222
AGTTTATA	0.198
ATCAGTAG	0.0819
ATCCGACC	-0.186
ACCCCATC	-0.00878
ACAGTTGA	0.0443
CATGGACC	-0.106
ACTGCGCA	0.12
AATTACTG	0.167
AGGTAAAG	0.223
CGCTAACA	0.0565
ATATTTTA	0.201
TCTTGCAA	0.0905
CGAGTATA	0.206
ACATATGC	-0.175
CCCAGGGA	-0.362
CGAAATCC	0.19
TGGAGTAA	0.212
ATCCTGAC	0.107
AACAGCCT	-0.102
AGACCGAC	-0.00815

Sequence	PBM E-score
GCCACCGA	-0.15
AGCACTGA	0.00244
ACGTTATC	0.179
CGATAAGA	0.0385
CAACGTAA	0.204
ATAATTGC	0.0846
CGTCTGAG	-0.0558
GGTGGCAA	-0.0788
AGAGTTGG	0.0138
CAAGGTAC	-0.168
CATGTCTC	0.00412
CGTTCATC	0.111
ATACGTAC	-0.0222
AAGAAGTG	0.015
ATTACAGA	0.0804
CCAAATTC	-0.115
AGGGGACA	-0.136
ATTGTAGG	0.243
CCCTGGAG	-0.292
CTATATTA	0.325
CCCATAGC	-0.195
ATGACCCA	0.181
CCTACCTC	-0.139
GTCGGGAA	-0.0504
CCCCCGTA	-0.414

Sequence	PBM E-score
CGGGCAAG	-0.0454
CTACTGAA	-0.018
TACTTCAA	0.175
CCATATTA	0.169
TCCATGGA	0.158
GAGATAGA	0.0135
GGCCTCTA	-0.243
TAGTGTAA	0.134
ATCAAGTG	0.17
TATGCCCA	-0.0532
AAATGCAC	0.0645
AGGCATGC	-0.0863
CCCATGTA	0.00527
CGCGAGAC	-0.122
ACCTGCTG	0.14
AAGGAAGA	-0.136
AAACCCGA	0.185
AGGAGTTC	-0.0983
AACTTCAG	-0.0729
GGTTGAAA	-0.00909
AAGTGTAC	-0.0708
CGCAAACC	-0.00168
GTGATTGA	0.148
CCTCTAAG	-0.236
CTGGCCTC	-0.206

Sequence	PBM E-score
GGGCGTAA	-0.0611
ACTCGACT	-0.043
GACTTCTA	-0.233
AGGCAGAC	-0.247
CCTGAACA	-0.149
GAGCCCAC	-0.119
ACGGTGGA	-0.285
AGTGAAAT	0.008
CCTAAGTC	-0.135
CGGGGGAC	-0.3
AATCTCCA	-0.105
CAAAGTAG	-0.0133
ACTATAGG	-0.0568
AGCTTATA	0.191
ACTTCACC	-0.00883
CCCTGAGC	-0.00649
ACCATCAG	-0.113
CATTGGAA	0.0547
GAAACTAA	0.0253
GCTATGAA	0.0794
AACACAAT	0.14
GTCCAGTA	-0.0759
ATTGTACG	-0.0541
CTGCCCCA	0.0616
ATCGGGTG	0.138

Sequence	PBM E-score
ATACACGC	0.0469
AAGGTATC	-0.0586
CTATGGTC	-0.023
CTGGCGTA	-0.295
AATCCGCA	0.139
AATGTGCT	0.134
TCCGGTCA	-0.0497
ACGCTTTC	-0.0241
CTGGCATC	-0.153
AGGGCCTA	-0.19
CAAACAAA	0.12
AAGGGAGA	-0.224
TGGCTACA	0.0221
CACCTTGC	-0.0615
GCTGCATA	0.0524
CTCATCAC	-0.0246
GATCATGA	0.159
ACCCCGAT	0.155
AGCTTTCA	0.0229
AATGGCCA	-0.0811
AGCGTCGA	0.181
CAAACAGC	0.12
GGTTGGAC	-0.0946
CGACGGTC	-0.28
AAGTGCTA	0.0335

Sequence	PBM E-score
TCCACTAA	0.0246
ACTCCTAA	0.00319
CTGGGTAA	-0.0503
ATAACATA	0.26
ACTGCGTA	-0.253
CGCCCGAG	-0.03
AAGGGCCA	-0.124
CGCGCAAA	0.241
GGTGCGAA	0.0226
TCGACACA	0.0542
ATAGAGTA	0.119
ACAAGCCG	-0.0858
GAACACGA	0.0378
AAGATAGT	0.163
GGTTCAAC	-0.0864
ATCTTATA	0.223
ATTGACCG	0.127
CCCAGATA	-0.0105
ACAGCCGC	-0.153
CAACGCGG	-0.106
ACCATTCA	0.0437
ACTTTGTC	0.035
CCAGCTCA	0.0449
GGGGCGTA	-0.0418
CACTACCG	-0.2

Sequence	PBM E-score
CCGGCTGA	0.107
TCGTACAA	0.0773
AAGAAAAG	0.056
CCAAGCCA	-0.132
GAAGGCCA	-0.179
AATAACAA	0.182
CACTACTG	0.03
AGCTAACT	-0.0235
ACAGTATC	0.0811
CAAGATTC	0.0363
ATATATGC	0.175
GAATCAGA	0.2
AGATAGAC	-0.0516
CTGCTTGA	-0.185
ACGCTTGG	-0.108
CGCGCATC	-0.134
ATCTGGGA	-0.149
CAAGGGCG	-0.219
CTCCTTCC	-0.14
ACGCAGAT	0.0298
ATGAATAA	0.142
AGGGAACT	-0.169
GCTATGGA	-0.01
GACGGACC	-0.0258
GGGTGACA	0.0313

Sequence	PBM E-score
AGTCGGAA	0.144
TCCAGCAA	-0.0121
AGCAGAAT	0.181
CGGTTTAG	-0.0638
ACAAAGCC	-0.0329
AGGTTCGA	0.181
AATGATTG	0.205
TAAACACA	0.0718
AGGATCCG	-0.123
ATGTCAAC	0.0833
GCGTCGGA	-0.028
CCTATTCC	0.0295
ATAAAAGA	0.00942
GCTCTAAA	-0.109
AGATCGGG	-0.0481
AGGTTATC	-0.0169
CCGTCCAC	0.0862
TCCTGAAA	-0.0642
AATGAAAA	0.24
AATGGTGG	-0.0523
ACTGTCGG	-0.186
AGACTGTA	0.0527
ATCACGTC	0.186
GTGGCGCA	0.0152
CTACGATA	0.121

Sequence	PBM E-score
AAAAATGA	0.155
CAACAAGG	0.0656
CTGTGCAC	-0.214
AATGGGCA	0.116
CGAAACCG	0.064
CAACTATC	0.0334
GCCACAGA	-0.199
CTCCATCA	-0.011
GGTGGCAC	-0.191
ATAAGGAG	-0.0313
CTCCTGTC	-0.203
GCCGTTAC	-0.0362
TCGCGAGA	0.1
AGCTACGG	-0.0334
CCACCCAA	0.14
AATAACGG	0.159
GACGATGC	-0.128
GCAACACC	0.0724
ACGCGCCA	-0.173

For convenience, part of the list above:
Sequence	PBM E-score
AATGGGCA	0.116
CGAAACCG	0.064
CAACTATC	0.0334
GCCACAGA	-0.199
CTCCATCA	-0.011

Reference: the supplement of paper PMC3334620
